Patent US20070281320A1

Target: Keyhole Limpet Hemocyanin, protein carrier
Test: ELISA; carrier of the thiolated-S1P laydown exchanged between BSA and KLH, no significant difference in binding

- binding: no binding
B1: murine anti-S1P monoclonal antibody Sphingomab (hybridoma clone 306D326.26, ATCC SD-5362) (antibody, IgG1, V domains shown)
VH: QAHLQQSDAELVKPGASVKISCKVSGFIFIDHTIHWMKQRPEQGLEWIGCISPRHDITKYNEMFRGKATLTADKSSTTAYIQVNSLTFEDSAVYFCARGGFYGSTIWFDFWGQGTTLTVS
VL: ETTVTQSPASLSMAIGEKVTIRCITTTDIDDDMNWFQQKPGEPPNLLISEGNILRPGVPSRFSSSGYGTDFLFTIENMLSEDVADYYCLQSDNLPFTFGSGTKLEIK

Results are given in words; binding and its absence hold for the method and conditions named.
